Laboratory results published in PubChem BioAssay AID330 (DTP/NCI, 2004).
The list is a part of this screen's results and no random one: it gathers tests that were run many times, whatever their T/C, doses with no T/C, and many T/C values between a quarter and a half above the control. Other doses and runs of a compound stand elsewhere. T/C: endpoint of the treated group in % of that of the vehicle group. Some entries give survivors of the animals treated and no T/C: the source holds a T/C of zero for them, seemingly a mark for toxic or unscored doses. Some survivor counts are full or nearly so, which does not show that the dose was tolerated: survival well below the control is almost never listed, so the zero probably covers shortened survival too. Counts of survivors are from the toxicity check (mostly the fifth day) where no day follows; animals may have died later. Schedules are NCI's codes, read here as Q, the interval in days (D) or hours (H), X, the number of doses. Some entries hold several experiments; their values stand side by side, smallest first. Where survival is the endpoint, the PubChem record calls one and a half times the control and up active, and a quarter to a half above the control has no call in these data; cut-offs in other NCI protocols can differ. Some T/C values carry the count of animals alive at the toxicity check (mostly the fifth day); without a count, all were alive then.

System: P388 leukemia ip, CD2F1 mice, survival T/C
Assay: NCI In Vivo Anticancer Drug Screen. Data for tumor model P388 Leukemia (intraperitoneal) in CD2F1 (CDF1) mice
Details: T/C endpoint: median survival time, higher T/C = longer survival
[1] = dose: 50.0 mg/kg/injection, schedule: Q01DX005 (ip), vehicle: saline
[2] = dose: 100.0 mg/kg/injection, schedule: Q01DX005 (ip), vehicle: saline
[3] = dose: 200.0 mg/kg/injection, schedule: Q01DX005 (ip), vehicle: saline
[4] = dose: 100.0 mg/kg/injection, schedule: Q01DX009 (ip), vehicle: Klucel (hydroxypropylcellulose) (HPC)
[5] = dose: 240.0 mg/kg/injection, schedule: Q01DX005 (ip), vehicle: saline with Tween-80
[6] = dose: 50.0 mg/kg/injection, schedule: Q01DX005 (ip), vehicle: saline with Tween-80
[7] = dose: 100.0 mg/kg/injection, schedule: Q01DX005 (ip), vehicle: saline with Tween-80
[8] = dose: 200.0 mg/kg/injection, schedule: Q01DX005 (ip), vehicle: saline with Tween-80
[9] = dose: 200.0 mg/kg/injection, schedule: Q01DX009 (ip), vehicle: Klucel (hydroxypropylcellulose) (HPC)
[10] = dose: 60.0 mg/kg/injection, schedule: Q01DX005 (ip), vehicle: saline with Tween-80
[11] = dose: 120.0 mg/kg/injection, schedule: Q01DX005 (ip), vehicle: saline with Tween-80
[12] = dose: 240.0 mg/kg/injection, schedule: Q01DX005 (ip), vehicle: Klucel (hydroxypropylcellulose) (HPC)
[13] = dose: 200.0 mg/kg/injection, schedule: Q01DX005 (ip), vehicle: Klucel (hydroxypropylcellulose) (HPC)
[14] = dose: 50.0 mg/kg/injection, schedule: Q01DX005 (ip), vehicle: Klucel (hydroxypropylcellulose) (HPC)
[15] = dose: 100.0 mg/kg/injection, schedule: Q01DX005 (ip), vehicle: Klucel (hydroxypropylcellulose) (HPC)

## N=C(N)c1ccc(OCCCOc2ccc(C(=N)N)cc2)cc1
[1]
  survivor count: 0 of 5
[2]
  survivor count: 0 of 5
[3]
  survivor count: 0 of 5

## O=[N+]([O-])c1cc(C(F)(F)F)ccc1F
[4]
  survivor count: 2 of 6

## CCCCN=Cc1ccccc1
dose: 400.0 mg/kg/injection, schedule: Q04DX003 (ip), vehicle: saline with Tween-80
  survivor count: 4 of 6

## CN(C)CCCN1c2ccccc2CCc2ccccc21
[5]
  survivor count: 3 of 6

## O=C1C=CC(=O)c2c(O)ccc(O)c21
dose: 1.6 mg/kg/injection, schedule: Q01DX005 (ip), vehicle: saline with Tween-80
  survivor count: 0 of 5
dose: 3.12 mg/kg/injection, schedule: Q01DX005 (ip), vehicle: saline with Tween-80
  survivor count: 1 of 5
dose: 6.25 mg/kg/injection, schedule: Q01DX005 (ip), vehicle: saline with Tween-80
  survivor count: 0 of 5
dose: 12.5 mg/kg/injection, schedule: Q01DX005 (ip), vehicle: saline with Tween-80
  survivor count: 0 of 5
[6]
  survivor count: 0 of 5
[7]
  survivor count: 0 of 5
[8]
  survivor count: 0 of 5

## COCN1C(=O)CN=C(c2ccccc2)c2cc(NO)ccc21
[4]
  survivor count: 1 of 6
[9]
  survivor count: 0 of 6

## O=C1CS/C(=N/N=C/c2nc3ccccc3c(=O)n2-c2ccc(Cl)cc2)N1c1ccccc1
[6]
  survivor count: 6 of 6
[7]
  survivor count: 5 of 6

## Cc1cc(C)c(S(=O)(=O)N/N=C(\CBr)c2ccccc2)c(C)c1
[10]
  survivor count: 6 of 6
[11]
  survivor count: 6 of 6

## Cc1nc2cc3c(=O)n(C)cnc3cc2n1Cc1ccccc1
dose: 100.0 mg/kg/injection, schedule: Q04DX002 (ip), vehicle: Klucel (hydroxypropylcellulose) (HPC)
  survivor count: 2 of 6 and 5 of 6
dose: 200.0 mg/kg/injection, schedule: Q04DX002 (ip), vehicle: Klucel (hydroxypropylcellulose) (HPC)
  survivor count: 5 of 6
dose: 400.0 mg/kg/injection, schedule: Q04DX002 (ip), vehicle: Klucel (hydroxypropylcellulose) (HPC)
  survivor count: 1 of 6

## CC(C)N1CCC(Oc2ccc3ccccc3n2)C1 (stereo not given)
[9]
  survivor count: 0 of 6

## C/C(=N/NC(=O)O[C@@H]1C[C@H](C)CC[C@H]1C(C)C)c1cc[c]([Sn]([CH3])([Cl])[c]2ccccc2)cc1 (stereo not given in full)
dose: 15.0 mg/kg/injection, schedule: Q01DX005 (ip), vehicle: Klucel (hydroxypropylcellulose) (HPC)
  survivor count: 0 of 6
dose: 60.0 mg/kg/injection, schedule: Q01DX005 (ip), vehicle: Klucel (hydroxypropylcellulose) (HPC)
  survivor count: 0 of 6
dose: 120.0 mg/kg/injection, schedule: Q01DX005 (ip), vehicle: Klucel (hydroxypropylcellulose) (HPC)
  survivor count: 0 of 6
[12]
  survivor count: 0 of 6

## CC1=C(O)C(=O)C=C2C1=CC=C1[C@@]2(C)CCC2(C)[C@@H]3C[C@@H](C)C(=O)C[C@]3(C)CC[C@]12C (stereo not given in full)
dose: 32.5 mg/kg/injection, schedule: Q01DX005 (ip), vehicle: Klucel (hydroxypropylcellulose) (HPC)
  survivor count: 6 of 6
dose: 65.0 mg/kg/injection, schedule: Q01DX005 (ip), vehicle: Klucel (hydroxypropylcellulose) (HPC)
  survivor count: 6 of 6
dose: 130.0 mg/kg/injection, schedule: Q01DX005 (ip), vehicle: Klucel (hydroxypropylcellulose) (HPC)
  survivor count: 6 of 6

## Cc1nc2cc3c(cc2n2cccc12)oc1ccccc13
[13]
  survivor count: 1 of 5

## CCOC(=O)C1=C(N)N(S(=O)(=O)c2ccc(C)cc2)CCC(C(=O)OC)=C1
[10]
  T/C: 125 % of control

## CC1(C)CC(=O)C(C(c2ccc3c(c2)OCO3)N2CCOCC2)C(=O)C1 (stereo not given)
[12]
  survivor count: 1 of 6

## COc1ccccc1N=NC1=C2Nc3ccccc3N=C1N(c1ccccc1OC)C(=S)N2c1ccccc1C
[8]
  survivor count: 0 of 6

## Cc1ccc(C(C(C)[N+](=O)[O-])C(C(=O)c2ccccc2)S(=O)(=O)c2ccccc2)cc1 (stereo not given)
[14]
  survivor count: 6 of 6

## CC1(C)N=C(N)N=C(N)N1c1cccc(C(=O)O)c1
[13]
  survivor count: 1 of 6

## Oc1c(Cl)cc(C(c2cc(Cl)c(O)c(Cl)c2)C(c2cc(Cl)c(O)c(Cl)c2)c2cc(Cl)c(O)c(Cl)c2)cc1Cl
dose: 200.0 mg/kg/injection, schedule: Q04DX003 (ip), vehicle: Klucel (hydroxypropylcellulose) (HPC)
  T/C: 126 % of control
dose: 400.0 mg/kg/injection, schedule: Q04DX003 (ip), vehicle: Klucel (hydroxypropylcellulose) (HPC)
  survivor count: 6 of 6

## O=c1[nH]nc(-c2ccc(Cl)cc2)c2c1[nH]c1ccccc12
[5]
  survivor count: 3 of 6

## COCC(=O)O
dose: 200.0 mg/kg/injection, schedule: Q01DX009 (ip), vehicle: saline
  survivor count: 2 of 6
dose: 400.0 mg/kg/injection, schedule: Q01DX009 (ip), vehicle: saline
  survivor count: 0 of 6

## CCCCCN(CCNc1cc(OC)cc2cccnc12)C(C)CC (stereo not given)
[3]
  survivor count: 1 of 5

## Cc1ccc(C(=O)C(CN(C)C)CN(C)C)cc1C
dose: 12.5 mg/kg/injection, schedule: Q01DX005 (ip), vehicle: saline
  T/C: 128 and 132 % of control
dose: 25.0 mg/kg/injection, schedule: Q01DX005 (ip), vehicle: saline
  T/C: 125 % of control [5 of 6 alive]
[1]
  survivor count: 0 of 5
[2]
  survivor count: 0 of 5
[3]
  survivor count: 0 of 5

## CC[C@@]12C[C@H]3CN(CCc4c([nH]c5ccccc45)[C@@](C(=O)OC)(c4cc5c(cc4OC)N(C)[C@H]4[C@@](O)(C(=O)OC)[C@H](OC(C)=O)[C@]6(CC)C=CCN7CC[C@]54[C@@H]76)C3O1)C2 (stereo not given in full)
dose: 2.0 mg/kg/injection, schedule: Q01DX001 (ip), vehicle: distilled water + Tween-80
  T/C: 128 % of control

## CC(C)NC(C#N)C(C)C (stereo not given)
dose: 25.0 mg/kg/injection, schedule: Q01DX005 (ip), vehicle: Klucel (hydroxypropylcellulose) (HPC)
  survivor count: 0 of 6
[14]
  survivor count: 0 of 6
[15]
  survivor count: 0 of 6
[13]
  survivor count: 0 of 6

## COC1(OC)OC(c2ccc([N+](=O)[O-])cc2)=C(c2ccc([N+](=O)[O-])cc2)OC1(OC)OC
[12]
  survivor count: 1 of 6

## O=C(NC(=S)Nc1ccc(CCO)cc1)c1cccc(Br)c1
dose: 15.0 mg/kg/injection, schedule: Q01DX005 (ip), vehicle: saline with Tween-80
  survivor count: 6 of 6
dose: 30.0 mg/kg/injection, schedule: Q01DX005 (ip), vehicle: saline with Tween-80
  survivor count: 6 of 6
[10]
  survivor count: 6 of 6
[11]
  survivor count: 6 of 6

## CCN(CC)CCn1ncc(Sc2cc([N+](=O)[O-])ccc2N)c(Cl)c1=O
[5]
  survivor count: 0 of 6

## CCCCNC(=O)C1CC2c3cccc4c3c(cn4C)CC2N(C)C1 (stereo not given)
dose: 100.0 mg/kg/injection, schedule: Q01DX001 (ip), vehicle: saline
  survivor count: 3 of 6

## Cl[C](Cl)(Cl)[Hg][c]1ccccc1
dose: 24.0 mg/kg/injection, schedule: Q01DX009 (ip), vehicle: saline with Tween-80
  survivor count: 0 of 6

## O=[N+]([O-])c1cc(NC(=S)SCc2ccccc2)ccc1Cl
dose: 100.0 mg/kg/injection, schedule: Q01DX009 (ip), vehicle: suspension in saline
  survivor count: 5 of 6

## C/C(=N\NC(=S)N1CC(C)OC(C)C1)c1cnccn1 (stereo not given)
[7]
  survivor count: 3 of 6
[8]
  survivor count: 0 of 6

## COc1ccc2c(C)cc(N/N=C/c3ccccn3)nc2c1
[15]
  T/C: 125 % of control
[13]
  survivor count: 1 of 6, 2 of 6, 3 of 5
